Results: publication PMC6479402, “Anti-Herpetic, Anti-Dengue and Antineoplastic Activities of Simple and Heterocycle-Fused Derivatives of Terpenyl-1,4-Naphthoquinone and 1,4-Anthraquinone” (Molecules, 2019)

Tests used:
HeLa = assay: MTT cytotoxicity assay; type: cell-based, human; conditions: HeLa vs Vero; 48 h
Protocol: (§1) Then, each diluted molecule was added to the cells and incubated for further 48 h at 37 °C, 5% CO2. […] The DMSO was then added to dissolve the formed formazan crystals and absorbance was determined spectrophotometrically at 570 nm. […] IC50 values were expressed as the mean ± standard deviation (M ± SD) of two independent experiments done in quadruplicate.

Jurkat = assay: MTT cytotoxicity assay; type: cell-based, human; conditions: Jurkat vs Vero; 48 h
Protocol: as §1

Compound | SI (IC50 Vero/IC50 HeLa) (HeLa) | SI (IC50 Vero/IC50 Jurkat) (Jurkat)
COc1cccc2c1C(=O)c1c(O)c3c(c(O)c1C2=O)C[C@@](O)(C(=O)CO)C[C@@H]3O[C@H]1C[C@H](N)[C@H](O)[C@H](C)O1 [Doxorubicin, doxorubicin, reference compound] | 2.2 | 22
CC(C)CCCc1ccc2c(c1)C(=O)C(Cl)=C(Cl)C2=O [NQ 4] | 14 | 18
